Reference: PubChem BioAssay AID493188 (National Center for Advancing Translational Sciences (NCATS), 2011)
Inconclusive means that the source gave no clear call. Such entries were picked first, then a sample of the others. Where the call is inconclusive, the potency comes from a doubtful curve fit. Activity calls are given as the source filed them. Calls come from the whole dose curve; as a rule, active = well fitted inhibition curve with a large enough effect; inconclusive = small, poorly fitted or top-dose-only effect; inactive = flat fitted curve, though single readings scatter.

Chains of the proteins cited; added tags and fusions are not shown. Lines headed by an entry give the natural chain unless they say otherwise; changes in a name come on top.
UniProt P51570: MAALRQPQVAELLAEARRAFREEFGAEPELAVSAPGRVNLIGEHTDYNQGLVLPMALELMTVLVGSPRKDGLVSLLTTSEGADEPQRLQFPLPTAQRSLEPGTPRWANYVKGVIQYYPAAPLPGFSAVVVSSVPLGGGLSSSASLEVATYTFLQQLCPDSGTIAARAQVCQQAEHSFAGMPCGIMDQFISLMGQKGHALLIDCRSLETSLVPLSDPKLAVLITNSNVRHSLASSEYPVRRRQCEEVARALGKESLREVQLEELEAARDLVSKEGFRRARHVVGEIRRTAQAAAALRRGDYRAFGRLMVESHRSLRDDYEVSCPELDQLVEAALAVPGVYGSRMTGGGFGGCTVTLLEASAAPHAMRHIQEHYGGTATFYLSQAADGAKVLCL

What follows are compounds tested against Galactokinase (Homo sapiens) (UniProt P51570) (assay: Confirmation Assay for Inhibitors of Human Galactokinase (GALK): SAR round 2). Conditions: Recombinant GALK, Kinase-Glo ATP depletion luminescence; series mostly up to 57.5 µM.
Source text: NIH Molecular Libraries Probe Production Centers Network [MLPCN] NIH Chemical Genomics Center [NCGC] MLPCN Grant: R03 MH085689-01 Assay Submitter (PI): Kent Lai (University of Utah School of Medicine, 50 N Mario Capecchi Drive, Salt Lake City, UT 84132) NCGC Assay Overview Inherited deficiency of galactose-1-phosphate uridyltransferase (GALT) can result in a potentially lethal disorder called Classic Galactosemia (OMIM 230400). Several lines of evidence indicate that an elevated level of galactose-1-phosphate (gal-1-p), the product of galactokinase (GALK), is a major, if not sole, pathogenic mechanism in patients with classic galactosemia. Therefore, finding inhibitors of GALK is a potential novel therapy for this inherent metabolic disease and is the long term goal of this project. Active compounds observed in the qHTS GALK assay (AID: 1868) were cherry picked and re-screened for validation. GALK (provided by Kent Lai) was assayed using ATP and D-(+)-Galactose (Sigma-Aldrich cat# G0750) as substrates. Promega Kinase-Glo Plus (cat# V3774) technology was used to detect the residual ATP following kinetic reaction. Briefly, the Kinase-Glo Plus contains Ultra-Glo [1] luciferase and D-luciferin which generates a bioluminescence signal from the remaining ATP. Kinase reactions with and without GALK were used as negative and positive controls together with Protein Tyrosine Phosphatase CD45 inhibitor (EMD Bioscience cat# 540215) which is shown to inhibit GALK activity.
NCGC Assay Protocol Summary: Three uL/well of ATP-buffer solution (35 uM ATP, 20mM HEPES pH8.0, 5 mM MgCl2, 60 mM NaCl, 1 mM DTT, 0.01% BSA final concentration) was dispensed into 1536-well, assay plates (Greiner, solid white medium-binding plates) with Aurora Discovery BioRAPTR Flying Reagent Dispenser (FRD; Beckton-Dickenson). Compound and control solution (23 nL) was transferred to the assay plate using the Kalypsys 1536-pin tool apparatus. One uL/well GALK-galactose solution (5 nM GALK, 100 uM galactose, 20 mM HEPES pH8.0, 5 mM MgCl2, 60 mM NaCl, 1 mM DTT, 0.01% BSA final concentration) was then added using the FRD yielding a total kinase reaction volume of 4 uL/ well. After 1 hour of room temperature incubation, 4 uL Kinase-Glo Plus reagent was added for a final assay volume of 8 uL/well. Luminescence was detected with the ViewLux plate reader (Perkin Elmer, Waltham, MA) after 2 min incubation using a 1 sec exposure time and 2x binning.

**Q.** How did the Potency turn out when `CC(C)c1nc(Nc2nc3ccccc3o2)nc2c1CCCC2` was run?
**A.** The Potency was “inactive”.

**Q.** Which Potency does the source give for `O=C1CCCC2=C1C(c1ccncc1Cl)N=C(Nc1nc3ccccc3o1)N2` (stereo not given) here?
**A.** The Potency was active: 15.3 µM.

**Q.** For `COc1ccc(C2N=C(Nc3nc4ccccc4o3)NC3=C2C(=O)CCC3)cc1` (stereo not given), which Potency is on record?
**A.** Its Potency is inconclusive: 61.1 µM [inhibitor, partial curve].

**Q.** `Cc1nc(Nc2nc3ccccc3o2)nc2c1CCCC2` was tested. Which Potency did it give?
**A.** Its Potency is “inactive”.

**Q.** For `O=C1CCCC2=C1[C@@]1(CCC(c3ccccc3)C1)N=C(Nc1nc3ccccc3o1)N2` (stereo not given in full), which Potency is on record?
**A.** The Potency was “inactive”.

**Q.** Which Potency does the source give for `O=C1CCCC2=C1C(c1cccc(Cl)c1)N=C(Nc1nc3ccccc3o1)N2` (stereo not given) here?
**A.** The Potency was inconclusive: 61.1 µM [inhibitor, partial curve].

**Q.** How did the Potency turn out when `O=C1CCCC2=C1C(c1ccc(F)cc1)N=C(Nc1nc3ccccc3o1)N2` (stereo not given) was run?
**A.** The Potency was inconclusive: 61.1 µM [inhibitor, partial curve].

**Q.** Which Potency does the source give for `Cc1ccc(N(CC(=O)Nc2ccc(OC(F)(F)F)cc2)S(=O)(=O)c2c(C)noc2C)cc1` here?
**A.** The Potency was “inactive”.

**Q.** With `O=C1CCCC2=C1C(c1ccc(Cl)cc1)N=C(Nc1nc3ccccc3o1)N2` (stereo not given) as the compound, how does the Potency read?
**A.** Its Potency is inconclusive: 68.5 µM [inhibitor, partial curve].

**Q.** `Cc1ccc(C2N=C(Nc3nc4ccccc4o3)NC3=C2C(=O)CCC3)cc1` (stereo not given) was tested. Which Potency did it give?
**A.** Its Potency is inconclusive: 61.1 µM [inhibitor, partial curve].

**Q.** How did the Potency turn out when `CC1(C)CC(=O)C2=C(C1)NC(Nc1nc3ccccc3o1)=NC21CCCCC1` was run?
**A.** The Potency was inconclusive: 5.17 µM [inhibitor, full curve].

**Q.** For `COc1cccc(C2N=C(Nc3nc4ccccc4o3)NC3=C2C(=O)CCC3)c1` (stereo not given), which Potency is on record?
**A.** Its Potency is active: 18.8 µM.

**Q.** Which Potency does the source give for `O=C1CCCC2=C1C(c1cccc(C(F)(F)F)c1)N=C(Nc1nc3ccccc3o1)N2` (stereo not given) here?
**A.** Its Potency is inconclusive: 16.8 µM [inhibitor, partial curve, poor fit].

**Q.** How did the Potency turn out when `O=C1CCCC2=C1C(c1cccc(Oc3ccccc3)c1)N=C(Nc1nc3ccccc3o1)N2` (stereo not given) was run?
**A.** Its Potency is “inactive”.

**Q.** For `O=C1CCCC2=C1C(c1ccncc1)N=C(Nc1nc3ccccc3o1)N2` (stereo not given), which Potency is on record?
**A.** The Potency was inconclusive: 42.1 µM [inhibitor, partial curve, poor fit].

**Q.** Which Potency does the source give for `CC(C)(C)C(=O)Nc1ccc2c(c1)C(=O)C(=O)c1ccccc1-2` here?
**A.** The Potency was active: 2.59 µM.

**Q.** With `O=C1CCCC2=C1C(c1ccccc1Cl)N=C(Nc1nc3ccccc3o1)N2` (stereo not given) as the compound, how does the Potency read?
**A.** Its Potency is active: 2.66 µM.

**Q.** `CN(C)c1ccc(C2N=C(Nc3nc4ccccc4o3)NC3=C2C(=O)CCC3)cc1` (stereo not given) was tested. Which Potency did it give?
**A.** The Potency was inconclusive: 76.9 µM [inhibitor, partial curve].

**Q.** With `O=C1CCCC2=C1C(c1ccccc1)N=C(Nc1nc3ccccc3o1)N2` (stereo not given) as the compound, how does the Potency read?
**A.** The Potency was active: 34.3 µM.

**Q.** With `O=C1CCCC2=C1C(c1cccc(F)c1)N=C(Nc1nc3ccccc3o1)N2` (stereo not given) as the compound, how does the Potency read?
**A.** Its Potency is inconclusive: 68.5 µM [inhibitor, partial curve].
